# The list shows a part of the results.
# System: T1, CTL2-GFP (C. trachomatis L2/434/Bu, GFP-expressing)
# T1 construct: L2/434/Bu, GFP-expressing
# Set-up: species or system HeLa; Intracellular C. trachomatis growth in HeLa cells, bulk GFP fluorescence relative to DMSO
# Settings: bulk GFP, single well; 28.5 h, 10 µM; inhibitor
row,Compound,% of control remaining [%]
1,Clc1ccc(Nc2ncnc3ccccc23)cc1 [CBK072625],91.7805
2,CC(C)(C)OC(=O)NCCC(=O)Oc1ccc2c3c(c(=O)oc2c1)CCCC3 [CBK265008],100
3,CC1CC1C(=O)NCC(=O)Nc1nc2ccc(OC(F)(F)F)cc2s1 (stereo not shown) [CBK297874],75.5984
4,O=C(O)CCCCCNS(=O)(=O)c1ccc(Cl)cc1 [CBK261940],115.069
5,O=C(O)CCCC(=O)Nc1ccccc1-c1nc2ccccc2[nH]c1=O [CBK280451],122.442
6,Cc1noc(C)c1CCC(=O)NC(Cc1ccncc1)C1CC(O)C1 (stereo not shown) [CBK306790],116.92
7,CN(C)CCN(C)c1cncc(-c2cc3ccccc3o2)n1 [CBK066028],98.4261
8,COc1ccc(CNC(=O)c2cc(S(=O)(=O)N3CCCC3)cs2)cc1 [CBK307576],107.005
9,CCOC(=O)C1CCCN(S(=O)(=O)c2sc3ccc(Cl)cc3c2C)C1 (stereo not shown) [CBK154797],120.338
10,CN1C(=O)CC2(C1=O)C(=O)N(CCCOc1ccc(F)cc1)c1ccccc12 (stereo not shown) [CBK075513],116.877
11,Cc1onc(-c2ccccc2)c1C(=O)Nc1cccc(S(=O)(=O)N2CCOCC2)c1 [CBK268159],110.591
12,O=C(O)CCC(=O)N[C@H]1CCN2C(=O)c3cc(-c4ccc(Cl)cc4)ccc3NC(=O)[C@H]12 [CBK289275],107.166
13,COc1ccc(-c2nnc3c4ccccc4c(C)nn23)cc1S(=O)(=O)N1CCCCC1 [CBK266640],117.307
14,Nc1ncc(-c2ccc(C(=O)N3CCOCC3)cc2)nc1-c1ccsc1 [CBK200422],89.859
15,CCOc1ccccc1N1CCN(C(C(=O)O)c2c[nH]c3ccc(CO)cc23)CC1 (stereo not shown) [CBK286816],143.401
16,CC(NC(=O)c1cccc(-n2cnnc2)c1)c1ccc2c(c1)CCC2 (stereo not shown) [CBK282707],142.627
17,Cc1ccc(Cn2nc(NC(=O)C3CCCCC3)c3ccccc32)cc1 [CBK048217],122.462
18,CC(=O)NC[C@H]1CN(c2ccc3c(c2)CCN(C(=O)Oc2ccccc2)CC3)C(=O)O1 [CBK018498],9.2087
19,O=C(Nc1cccc([N+](=O)[O-])c1)c1ccc(CSc2ccccc2)cc1 [CBK265295],110.504
20,COc1cc(C)c(Nc2cccc(/C=C/c3ccccc3)n2)cc1OC [CBK037725],130.32
21,C[C@@H](Cn1nc2c(cc1=O)CCCC2)NC(=O)c1ccc(F)cc1 [CBK284562],155.486
22,O=S(=O)(c1ccccc1)N1Cc2cccc3[nH]cc(c23)C1 [CBK153275],104.766
23,CC(C)CN1CC(C(=O)NCc2ccccc2-n2ccnc2)CC1=O (stereo not shown) [CBK282189],131.336
24,COc1ccc(C(=O)Nc2ccc(S(=O)(=O)Nc3nccs3)cc2)cc1I [CBK263880],43.2157
25,O=C(C1CC1)N1CCC(c2[nH]ncc2-c2ccncc2)CC1 [CBK284238],162.892
26,O=C(NCc1ccc2c(c1)CCCO2)C1CC2C=CC1C21CC1 (stereo not shown) [CBK281503],122.685

row,Compound,% of control remaining [%]
1,Cc1c(S(=O)(=O)Nc2ccnn2C)cnn1-c1ccccc1 [CBK062079],111.523
2,COc1ccc(CC(=O)N2CCCC2c2cccc(Cc3cccc(F)c3)n2)cc1 (stereo not shown) [CBK286220],70.527
3,CS(=O)(=O)N[C@H]1C[C@H]2C(=O)Nc3ccc(-c4ccc(F)cc4F)cc3C(=O)N2C1 [CBK289368],105.233
4,CC(=O)Nc1ccc(S(=O)(=O)N(C)CC(=O)O)cc1 [CBK267570],100.815
5,O=C(Nc1cccc(C=Cc2ccccn2)c1)c1c[nH]nc1-c1ccc(F)cc1 [CBK295335],110.907
6,COc1ccc(C2CCCN2C(=O)CC2CCN(C(=O)CC3CCCCC3)CC2)cc1 (stereo not shown) [CBK286263],103.778
7,Cc1ccc(C)n1C1CC(C)(C)NC(C)(C)C1 [CBK019116],100
8,CC1CCN(S(=O)(=O)c2ccc(C(=O)N[C@@H](C)C(=O)O)cc2)CC1 [CBK297106],120.829
9,CN1CCN(c2ccccc2NC(=O)c2cccc3c(Br)cccc23)CC1 [CBK267894],96.7972
10,Cc1ccccc1-c1ccc(C(=O)N2CCN(C)CC2)c(NCc2cccnc2)n1 [CBK076125],100
11,CN(Cc1ccccc1N1CCOCC1)C(=O)Cc1cn2ccsc2n1 [CBK305830],87.6399
12,CCOC(=O)Cc1csc(SC(C)C(=O)N2CCc3ccccc3C2)n1 (stereo not shown) [CBK305586],119.76
13,COc1ccc(Br)cc1S(=O)(=O)NCc1cccnc1 [CBK264023],112.555
14,c1cnc(N2CCN(CCN3CCOCC3)CC2)c(OCCN2CCOCC2)n1 [CBK082899],119.638
15,CCNC(=O)Nc1ncc(-c2ccc(Oc3ccccc3)cc2)c2cccnc12 [CBK070636],95.0922
16,CN(C)/C=N/c1nc2c(ccn2C2CC(O)C(CO)O2)c(=O)[nH]1 (stereo not shown) [CBK201276],154.3
17,COc1cc(CNC(=O)NC(=O)C2CCN(C(C)=O)CC2)cc(OC)c1OC [CBK034833],110.675
18,Cc1noc(C)c1NC(=O)c1ccnc2ccccc12 [CBK200302],158.487
19,Cc1cc([N+](=O)[O-])ccc1NC(=O)Cn1cnc2c1c(=O)n(C)c(=O)n2C [CBK263162],113.118
20,COC(=O)c1cccc2c(C)c(C)[nH]c12 [CBK001563],99.8629
21,O=C(O)c1ccc(NC(=O)c2ccccc2NC(=O)c2cccc(Br)c2)cc1 [CBK265517],115.254
22,CSC1CCC(N(C)C(=O)NCCc2cn3cccc(C)c3n2)C1 (stereo not shown) [CBK305324],113.989
23,O=C(NC1CCNC1)c1ccc(F)cc1 (stereo not shown) [CBK281632],134.735
24,Cc1ccc2c(c1)cc(C(=O)N1CCOC(C(=O)N3CCCCCC3)C1)n2C (stereo not shown) [CBK286032],124.622
25,CCN(CC)CCn1c(=N)n(CC(O)c2ccc(C)cc2)c2ccccc21 (stereo not shown) [CBK262914C],100
26,COc1cc(OC)c(NC(=O)C(C)Oc2ccc(Cl)c(C)c2)cc1Cl (stereo not shown) [CBK269697],133.473

row,Compound,% of control remaining [%]
1,CCNC(=S)N1CCN(CCNC=C2C(=O)CC(C)(C)CC2=O)CC1 [CBK263661],128.721
2,C=C(C)CN1CCN(Cc2c[nH]nc2C(C)(C)C)CC1 [CBK282827],129.293
3,CCOC(=O)Nc1ccc2c(c1)N(C(=O)CN1CCN(C)CC1)c1ccccc1CC2 [CBK278194C],110.07
4,CCn1cc(C(=O)Nc2nccs2)c(=O)c2ccc(C)nc21 [CBK307628],124.871
5,Cc1ccc(OCc2nnc(SCC(=O)c3cccs3)n2-c2ccccc2)cc1C [CBK265033],103.826
6,Cn1ccnc1C(NC(=O)[C@@H]1C[C@@H]2C=C[C@H]1C2)c1ccc(F)cc1 (stereo partly shown) [CBK281483],127.325
7,O=C(c1ccco1)N(CCCn1ccnc1)c1nc2c(F)cccc2s1 [CBK287758],117.624
8,CN1CCN(c2cccc(-c3ccc(CNC(=O)OC(C)(C)C)cc3)n2)CC1 [CBK037641],142.809
9,O=C(Nc1ccc(Cc2ccc(O)c(NC(=O)c3ccccc3F)c2)cc1O)c1ccccc1F [CBK265766],100
10,O=C(O)c1c(Br)c(Br)c(Br)c(Br)c1C(=O)NCCc1ccccc1 [CBK261702],114.15
11,CC(=O)N1C[C@H](c2cccc(C)c2)[C@H]2CN(C3CCCC3)CC[C@H]21 [CBK283369],165.169
12,Cc1cc(NS(=O)(=O)c2ccc(Nc3nc(-c4ccccn4)cs3)cc2)no1 [CBK263302B],22.6441
13,CCOc1ccccc1/C=N/Nc1ccccc1[N+](=O)[O-] [CBK261673],100
14,CC(C)n1ncc2cc(C(=O)Nc3ncccc3O)cnc21 [CBK305751],115.885
15,CCCCc1ccc(-c2nc3ncccc3cc2O)cc1 [CBK073702],78.0198
16,CCN(CC(=O)Nc1ccc(OC)c(Cl)c1)S(=O)(=O)c1ccc2ccccc2c1 [CBK267910],124.677
17,CC(=O)c1sc2nc(-c3ccccc3)nc(C)c2c1N [CBK115368],108.776
18,Cc1[nH]c2ccccc2c1/C=N/NC(=O)C1COc2ccccc2O1 (stereo not shown) [CBK261482],100
19,O=C(O)c1nccnc1-c1ccc(Cn2ccc3ccccc32)cc1 [CBK050811],194.223
20,CCCC/C=C/c1cncc(NC2CCC(N)CC2)n1 (stereo not shown) [CBK037827],120.505
21,Cc1ccc(OCC(=O)NCC2CCN(c3cnn(C)c(=O)c3)C2)cc1 (stereo not shown) [CBK306693],105.671
22,CC(=O)Nc1cccc(-c2nccnc2N2CCCCC2CCO)c1 (stereo not shown) [CBK036591],139.516
23,O=C(NNCc1ccccc1)c1cc(Br)cnc1N1CCN(C(=O)c2ccco2)CC1 [CBK076460],103.019
24,COC(=O)CCCC(=O)n1ccn(CCc2cccs2)c1=O [CBK106612],100

# Some values from the list.
# % of control remaining [%], `CCn1cc(C(=O)Nc2nccs2)c(=O)c2ccc(C)nc21` [CBK307628] is entered as 124.871
# % of control remaining [%], `Cc1cc(NS(=O)(=O)c2ccc(Nc3nc(-c4ccccn4)cs3)cc2)no1` [CBK263302B] is entered as 22.6441
# % of control remaining [%], `Cn1ccnc1C(NC(=O)[C@@H]1C[C@@H]2C=C[C@H]1C2)c1ccc(F)cc1` (stereo partly shown) [CBK281483] is entered as 127.325
# % of control remaining [%], `CCNC(=S)N1CCN(CCNC=C2C(=O)CC(C)(C)CC2=O)CC1` [CBK263661] is entered as 128.721
